Measured values published in PubChem BioAssay AID504834 (National Center for Advancing Translational Sciences (NCATS), 2011).
In all, about 320,000 compounds went through this assay and about 22,000 (6.9%) were called active. The shares of active, inactive and inconclusive entries below differ from those in the screen. The call rests on the fitted dose curve; in most records, active means well fitted inhibition curve with a large enough effect; inconclusive means small, poorly fitted or top-dose-only effect, or another doubt; inactive means no such curve, though single readings can be large or run the other way. Where the call is inconclusive, the potency comes from a doubtful curve fit.

test: Primary qHTS for delayed death inhibitors of the malarial parasite plastid, 96 hour incubation; conditions: P. falciparum luciferase reporter growth; series mostly up to 28.7 µM; activity change, negative = inhibition: at the top concentration
Procedure, shortened: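 Delayed-death screen, second-generation endpoint: infected erythrocytes, 2% hematocrit, 0.05% parasitemia final; 96 hours at 37 C, 5% CO2; luciferase detection reagent; luminescence decrease equals reduced growth.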
On the % scale 0 is the no-effect control and ±100 the full control effect; potency means the concentration at half of the fitted maximal effect.

**Q.** With COc1ccc2c(C)cc(SCC#N)nc2c1 as the compound, how does the “activity change, negative = inhibition” value read?
**A.** Its value is inactive: 13.5%.

**Q.** With COc1ccc(-c2nnc(OC)c3ccccc23)cc1 as the compound, how does the Potency read?
**A.** The Potency was inconclusive: 1.31 µM [inhibitor, partial curve, poor fit].

**Q.** Which “activity change, negative = inhibition” value does the source give for Cc1cccc(Nc2nnc(SCC(=O)NCc3cccs3)s2)c1 here?
**A.** The value was inactive: -28.2%.

**Q.** With Cc1cc(C)cc(NC(=O)N2CCC(NC(=O)c3ccccc3C)CC2)c1 as the compound, how does the “activity change, negative = inhibition” value read?
**A.** The value was inactive: -0.766%.

**Q.** With COc1ccc(-c2nn(-c3ccccc3)cc2/C=C(/C#N)C(N)=O)cc1[N+](=O)[O-] as the compound, how does the Potency read?
**A.** The Potency was inconclusive: 4.15 µM [inhibitor, single point].

**Q.** With O=C(Nc1ccn(Cc2ccccc2)n1)c1cccc(F)c1 as the compound, how does the “activity change, negative = inhibition” value read?
**A.** The value was inactive: -5.37%.

**Q.** For COc1ccc(N(CC(=O)NC(C)c2ccccc2)S(=O)(=O)c2ccc(C)cc2)cc1 (stereo unspecified), which Potency is on record?
**A.** The Potency was inconclusive: 8.28 µM [inhibitor, partial curve].

**Q.** With COc1ccccc1Nc1cc(C)nc(Nc2ccccc2OC)n1 as the compound, how does the Potency read?
**A.** Its Potency is active: 10.4 µM.

**Q.** For Cn1cc(-c2ccccc2C(=O)O)c(=O)c2ccccc21, which “activity change, negative = inhibition” value is on record?
**A.** Its value is inactive: 7.93%.

**Q.** With [N-]=[N+]=NCc1cn2cccnc2n1 as the compound, how does the “activity change, negative = inhibition” value read?
**A.** Its value is inactive: 39%.

**Q.** Which Potency does the source give for CN1CC(=O)N2C(Cc3c([nH]c4ccccc34)[C@H]2c2ccc3c(c2)OCO3)C1=O (stereo partly specified) here?
**A.** Its Potency is inconclusive: 19 µM [inhibitor, single point].

**Q.** Which Potency does the source give for CC1(C)C=C2[C@H]3CC[C@@H]4[C@@]5(C)CCC(=O)C(C)(C)[C@@H]5CC[C@@]4(C)[C@]3(C)CC[C@@]2(C(=O)O)CC1 here?
**A.** Its Potency is inconclusive: 1.85 µM [inhibitor, partial curve, poor fit].

**Q.** With COc1cccc(NC(=S)NCCN2CCOCC2)c1 as the compound, how does the Potency read?
**A.** Its Potency is inconclusive: 3.29 µM [inhibitor, full curve].

**Q.** With CC(=O)c1cnc2nc(C)nn2c1C as the compound, how does the Potency read?
**A.** The Potency was inconclusive: 13.1 µM [inhibitor, single point].

**Q.** With COc1cc2c(cc1N/C=C(\C#N)c1nc(-c3ccc(F)cc3)cs1)oc1ccccc12 as the compound, how does the Potency read?
**A.** The Potency was inconclusive: 0.0928 µM [inhibitor, full curve, poor fit].

**Q.** With O=C(CCC1CCCC1)Nc1ccc(OCC(=O)N2CCOCC2)cc1 as the compound, how does the “activity change, negative = inhibition” value read?
**A.** The value was inactive: -15.4%.

**Q.** For Cc1ccc(NC(=O)Nn2cnnc2)cc1, which Potency is on record?
**A.** Its Potency is inconclusive: 9.28 µM [inhibitor, partial curve, poor fit].

**Q.** Which Potency does the source give for Cc1cccc(NS(=O)(=O)c2cccc(C(=O)NCCCN3CCCC3=O)c2)c1 here?
**A.** Its Potency is inconclusive: 11.7 µM [inhibitor, partial curve].

**Q.** For C/C(=N\NC(=O)c1nn(C)c(C)c1Br)c1ccc(NC(=O)C2CCCC2)cc1, which Potency is on record?
**A.** The Potency was active: 13.1 µM.

**Q.** Which “activity change, negative = inhibition” value does the source give for Cc1cc[n+]2n1CC(O)C2 (stereo unspecified) here?
**A.** The value was inactive: 11.9%.

**Q.** For Cc1cccnc1NC(=O)CSc1nnc(COc2ccc(C(C)C)cc2)n1C, which Potency is on record?
**A.** The Potency was inconclusive: 18.5 µM [inhibitor, single point].
